# Data as given in patent publication US20190300845A1, “SEQUENTIAL ADDITION OF MOLECULAR GERMINANTS TO BACTERIAL SPORES” (NOVOZYMES BIOAG A/S, priority 2016, published 2019).
# At least one structure is not confirmed: it was looked up by name or label, or the drawing left a doubt.
# System: Bacillus megaterium strain SB3112 spores
# Assay: KBr pretreatment, germination by dipicolinic acid (DPA) release (Tlag, Gmax)
# Assay type: cell-based
# Protocol: Germination of spores in these studies was determined by measuring dipicolinic acid (DPA). DPA is about 10% of the mass of endospores, which is generally released when germination occurs. Boiling spores generally releases all of the DPA (used as a positive control). DPA release was detected using terbium chloride (TbCl3), as described below.
# To perform the germination assays, 30 μl of spores were added to wells of a 96-well flat-bottom microtiter plate. Subsequently, 35 μl of a 250 μM TbCl3 stock was added. At time 0, 85 μl of a D-fructose solution was added, to give a final concentration of 10 mM D-fructose. The solution was mixed by pipetting, the microtiter plate was placed into a plate reader (Synergy H4 Multi-Mode Reader, Bio-Tek), and the sample wells were measured for presence of a fluorescent Tb-DPA product over time. Tb-DPA is excited at 270 nm and emits at 545 nm. All experimental samples were tested in triplicate. Baseline controls for each sample were generated by omitting L-alanine and these were performed in duplicate. All sample wells were measured immediately after D-fructose was added (time 0) and then over time. For each time point, the data were normalized to values for the spores that had been boiled for two hours to force 100% release of DPA from the spores.
# These studies were generally performed as described in Example 3. SB3112 spores, heat-activated or not heat-activated (not heat-activated are called “native”), were treated with 0.5, 3.0, or 10.0 mM KBr overnight at either 4° or 22° C. […] The time at which the subsequent addition was made to the spores was considered time 0. DPA concentration was measured over time.
# To facilitate comparison of the different samples, values for Tlag and Gmax were calculated for each spore treatment. Tlag is the time after exposure to germinants that a population of spores begins to rapidly release DPA into the environment. Tlag indicates, in part, how rapidly a population of spores responds to germinants. Gmax is the maximum percentage of DPA that a sample releases during an experiment, divided by the DPA released by the sample when boiled. Gmax is proportional to the percentage of spores in a population that germinates.
smiles,measurement,setting,value
[Br-].[K+] [KBr],Tlag,"heat-activated spores, 0.5 mM KBr overnight at 4° C. before full germinant solution",7:30 min:sec
same,Tlag,"heat-activated spores, 0.5 mM KBr overnight at 22° C. before full germinant solution",11:30 min:sec
same,Tlag,"heat-activated spores, 3.0 mM KBr overnight at 4° C. before full germinant solution",7:30 min:sec
same,Tlag,"heat-activated spores, 3.0 mM KBr overnight at 22° C. before full germinant solution",7:30 min:sec
same,Tlag,"heat-activated spores, 10.0 mM KBr overnight at 4° C. before full germinant solution",7:30 min:sec
same,Tlag,"heat-activated spores, 10.0 mM KBr overnight at 22° C. before full germinant solution",7:30 min:sec
same,Tlag,"native spores, 0.5 mM KBr overnight at 4° C. before full germinant solution",23:30 min:sec
same,Tlag,"native spores, 0.5 mM KBr overnight at 22° C. before full germinant solution",7:30 min:sec
same,Tlag,"native spores, 3.0 mM KBr overnight at 4° C. before full germinant solution",19:30 min:sec
same,Tlag,"native spores, 3.0 mM KBr overnight at 22° C. before full germinant solution",7:30 min:sec
same,Tlag,"native spores, 10.0 mM KBr overnight at 4° C. before full germinant solution",19:30 min:sec
same,Tlag,"native spores, 10.0 mM KBr overnight at 22° C. before full germinant solution",7:30 min:sec
